The list shows only some results of the screen, not a fair sample: its compounds were picked by chemical class. Other doses and runs of a compound may be missing. T/C is the treated group as % of the vehicle group. For survival time, the PubChem record calls one and a half times the control and up active, and a quarter to a half above the control has no call in these data; cut-offs in other NCI protocols can differ. Some T/C values are marked as having no survivor count here; that says nothing about deaths at the dose. Schedule codes are those of the source, read here as Q, the interval in days (D) or hours (H), X, the number of doses. Some entries hold several experiments; their values stand side by side, smallest first. Some schedules carry Z or #; the key to these is not given.
System: L1210 leukemia ip in BDF1 mice, survival T/C
Assay: NCI In Vivo Anticancer Drug Screen. Data for tumor model L1210 Leukemia (intraperitoneal) in B6D2F1 (BDF1) mice
Conditions: T/C endpoint: mean survival time, higher T/C = longer survival
[1] = dose: 10.0 mg/kg/injection, schedule: Q01DX Z (ip), vehicle: saline

NP(=O)(N(CCCl)CCCl)N1CCCCC1 (stereo not given) was tested, and the T/C [1] was 95 % of control [survivor count not shown], the T/C (dose: 30.0 mg/kg/injection, schedule: Q01DX Z (ip), vehicle: saline) was 94 % of control [survivor count not shown] and the T/C (dose: 100.0 mg/kg/injection, schedule: Q01DX Z (ip), vehicle: saline) was 101 % of control [survivor count not shown]. For the same molecule, the T/C (dose: 250.0 mg/kg/injection, schedule: Q01DX Z (ip), vehicle: saline) was 101 % of control [survivor count not shown], the T/C (dose: 300.0 mg/kg/injection, schedule: Q01DX Z (ip), vehicle: saline) was 96 % of control [survivor count not shown] and the T/C (dose: 500.0 mg/kg/injection, schedule: Q01DX Z (ip), vehicle: saline) was 90 % of control [survivor count not shown].

With Cc1cc(C)c2nc(CN(CCCl)CCCl)[nH]c2c1 the T/C (dose: 12.0 mg/kg/injection, schedule: Q01DX Z (ip), vehicle: methylcellulose (MC)) was 96 [survivor count not shown] and 103 % of control [survivor count not shown], the T/C (dose: 12.5 mg/kg/injection, schedule: Q01DX010 (ip), vehicle: carboxymethylcellulose (CMC)) was 98 % of control [survivor count not shown] and the T/C (dose: 18.0 mg/kg/injection, schedule: Q01DX Z (ip), vehicle: methylcellulose (MC)) was 96 [survivor count not shown] and 109 % of control [survivor count not shown]. For the same molecule, the T/C (dose: 21.0 mg/kg/injection, schedule: Q01DX Z (ip), vehicle: carboxymethylcellulose (CMC)) was 108 % of control [survivor count not shown], the T/C (dose: 25.0 mg/kg/injection, schedule: Q01DX010 (ip), vehicle: carboxymethylcellulose (CMC)) was 93 % of control [survivor count not shown] and the T/C (dose: 27.0 mg/kg/injection, schedule: Q01DX Z (ip), vehicle: methylcellulose (MC)) was 106 [survivor count not shown] and 117 % of control [survivor count not shown]. For the same molecule, the T/C (dose: 31.0 mg/kg/injection, schedule: Q01DX Z (ip), vehicle: carboxymethylcellulose (CMC)) was 119 % of control [survivor count not shown], the T/C (dose: 40.5 mg/kg/injection, schedule: Q01DX Z (ip), vehicle: methylcellulose (MC)) was 106 [survivor count not shown] and 107 % of control [survivor count not shown] and the T/C (dose: 47.0 mg/kg/injection, schedule: Q01DX Z (ip), vehicle: carboxymethylcellulose (CMC)) was 125 % of control [survivor count not shown]. The T/C (dose: 50.0 mg/kg/injection, schedule: Q01DX010 (ip), vehicle: carboxymethylcellulose (CMC)) was 116 % of control [survivor count not shown], the T/C (dose: 60.0 mg/kg/injection, schedule: Q01DX Z (ip), vehicle: carboxymethylcellulose (CMC)) was 105 % of control [survivor count not shown] and the T/C (dose: 61.0 mg/kg/injection, schedule: Q01DX Z (ip), vehicle: carboxymethylcellulose (CMC)) was 125 % of control [survivor count not shown]. The T/C (dose: 90.0 mg/kg/injection, schedule: Q01DX Z (ip), vehicle: carboxymethylcellulose (CMC)) was 103 % of control [survivor count not shown], the T/C (dose: 91.5 mg/kg/injection, schedule: Q01DX Z (ip), vehicle: carboxymethylcellulose (CMC)) was 125 % of control [survivor count not shown] and the T/C (dose: 100.0 mg/kg/injection, schedule: Q01DX010 (ip), vehicle: carboxymethylcellulose (CMC)) was 98 % of control [survivor count not shown]. For the same molecule, the T/C (dose: 120.0 mg/kg/injection, schedule: Q01DX Z (ip), vehicle: carboxymethylcellulose (CMC)) was 106 % of control [survivor count not shown] and the T/C (dose: 137.0 mg/kg/injection, schedule: Q01DX Z (ip), vehicle: carboxymethylcellulose (CMC)) was 88 % of control [survivor count not shown].

For O=[N+]([O-])c1ccc(/C=C/N(CCCl)CCCl)cc1, the T/C (dose: 2.5 mg/kg/injection, schedule: Q01DX Z (ip), vehicle: saline) was 100 % of control [survivor count not shown], the T/C (dose: 5.0 mg/kg/injection, schedule: Q01DX Z (ip), vehicle: saline) was 102 % of control [survivor count not shown] and the T/C (dose: 10.0 mg/kg/injection, schedule: Q01DX Z (ip), vehicle: other) was 103 % of control [survivor count not shown]. The T/C [1] was 105 % of control [survivor count not shown], the T/C (dose: 20.0 mg/kg/injection, schedule: Q01DX Z (ip), vehicle: other) was 98 % of control [survivor count not shown] and the T/C (dose: 40.0 mg/kg/injection, schedule: Q01DX Z (ip), vehicle: other) was 97 % of control [survivor count not shown]. For the same molecule, the T/C (dose: 80.0 mg/kg/injection, schedule: Q01DX Z (ip), vehicle: other) was 97 % of control [survivor count not shown].

For CC(C)=NN(CCCl)CCCl, the T/C (dose: 12.5 mg/kg/injection, schedule: Q01DX001 (ip), vehicle: saline) was 101 % of control [survivor count not shown], the T/C (dose: 22.0 mg/kg/injection, schedule: Q01DX001 (ip), vehicle: saline) was 101 % of control [survivor count not shown] and the T/C (dose: 25.0 mg/kg/injection, schedule: Q01DX001 (ip), vehicle: saline) was 121 % of control [survivor count not shown]. The T/C (dose: 25.0 mg/kg/injection, schedule: Q04DX003 (ip), vehicle: saline) was 103 % of control [survivor count not shown], the T/C (dose: 33.0 mg/kg/injection, schedule: Q01DX001 (ip), vehicle: saline) was 106 % of control [survivor count not shown] and the T/C (dose: 33.0 mg/kg/injection, schedule: Q04DX003 (ip), vehicle: saline) was 136 % of control [survivor count not shown]. The T/C (dose: 50.0 mg/kg/injection, schedule: Q01DX001 (ip), vehicle: saline) was 121 [survivor count not shown] and 128 % of control [survivor count not shown], the T/C (dose: 50.0 mg/kg/injection, schedule: Q04DX003 (ip), vehicle: saline) was 157 [survivor count not shown] and 167 % of control [survivor count not shown] and the T/C (dose: 75.0 mg/kg/injection, schedule: Q01DX001 (ip), vehicle: saline) was 140 % of control [survivor count not shown]. For the same molecule, the T/C (dose: 100.0 mg/kg/injection, schedule: Q01DX001 (ip), vehicle: saline) was 229 % of control [survivor count not shown].

— PubChem BioAssay AID248 (DTP/NCI, 2004)
